Measured values as given in US20170022254 (published 2017).

Experiment: general procedure: hybrid (solid and solution phase) peptide synthesis; 2-chlorotrityl resin; HATU/DIPEA; DICI/Oxyma; MSNT/NMI
Conditions: whole synthesis

With “(2S,5S,8S,9R,12S,15S,18S,19S)-2-(2-(1,3-dioxolan-2-yl)ethyl)-18-amino-15-(4-(tert-butoxy)benzyl)-12-((S)-sec-butyl)-5-isobutyl-8-((S)-2-isobutyramido-5-oxo-5-(tritylamino)pentanamido)-9,16,19-trimethyl-4,7,11,14,17-pentaoxo-10-oxa-3,6,13,1” as the substance, how does the crude mass (scale 5.0 mmol) read?
The crude mass was 9.6 g.

With “(4S)-2-(2-((3S,6S,9S,12S,15S,18S,19R)-6-(4-(tert-butoxy)benzyl)-3,9-di((S)-sec-butyl)-15-isobutyl-18-((S)-2-isobutyramido-5-oxo-5-(tritylamino)pentanamido)-7,19-dimethyl-2,5,8,11,14,17-hexaoxo-1-oxa-4,7,10,13,16-pentaazacyclononadecan-12-yl)ethyl)-1,3-dioxolane-4-carboxylic acid” as the substance, how does the crude mass (scale 5.0 mmols) read?
Its crude mass is 2.6 g.
